# Patent US8501992B2, “Hydroxyphenyl sulfonamides as antiapoptotic bcl inhibitors” (Bristol-Myers Squibb Company, priority 2008, dated 2013)
# Where two headings read alike, the source gives them in different places. Some results were stated once for a whole list of compounds, not compound by compound. At least one compound was matched to its structure with a doubt left.
# Target: T1, Bcl-b (Homo sapiens, UniProt Q9HD36)
# T1 construct: without their C-terminal transmembrane domain; GST; made in house
# T1 sequence (Q9HD36 1-182 limits assumed): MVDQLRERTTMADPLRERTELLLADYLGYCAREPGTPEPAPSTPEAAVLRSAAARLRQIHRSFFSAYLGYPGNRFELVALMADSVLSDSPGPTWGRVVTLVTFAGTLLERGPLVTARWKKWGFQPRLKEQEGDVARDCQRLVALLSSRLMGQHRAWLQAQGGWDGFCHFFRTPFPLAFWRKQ
# Test: Bclb/Bim fluorescence polarization assay (FPA)
# Assay type: binding
# Description: Compounds were profiled for their ability to disrupt in vitro binding interactions in fluorescence polarization assays (FPAs) using synthetic fluorochrome-labeled Bcl homology 3 (BH3) peptides derived from BIM [(FAM)-Ahx-[…]-NH2 (SEQ ID NO: 1) (GenBank Accession No. O43521)] or BAK [Ac-GQVGRQLAIIGE-LYS(FAM)-INR-NH2 (SEQ ID NO:2) (GenBank Accession No. Q16611) amino acid sequences and four bacterial recombinant proteins [Bcl-b (GenBank Accession No. Q9HD36), Bcl-2 (GenBank Accession No. P10415), Bcl-Xl (GenBank Accession No. Q07817), Mcl-1 (GenBank Accession No. Q07820)] without their C-terminal transmembrane domain. Proteins were purified from bacterial lysates using their glutathione S-transferase (GST)-tag (Bcl-b, Bcl-2, Mcl-1) or His6-tag (Bcl-Xl) and following one-step affinity chromatography procedures. Dissociation constants (Kd) for peptide binding protein were determined by fluorescence polarization in FPAs measuring BIM BH3 peptide binding Bcl-b, Mcl-1 or Bcl-2 protein or BAK BH3 peptide binding Bcl-Xl protein. The Kd values were generated by fitting the experimental data using a sigmoidal dose-response nonlinear regression model.
# Compound inhibitory concentration values, IC50 (50% reduction in fluorescence polarization), were determined using fluorochrome-labeled BH3 peptides and recombinant Bcl proteins in fluorescence polarization assays (FPAs). […]
Compound,"Ki (BIM BH3 peptide 5 nM, Bcl-b 40 nM, Ki calculated from FPA data, read-out: Bclb/Bim Ki)","Ki (read-out: Bclb/Bim Ki, BIM BH3 peptide 5 nM, Bcl-b 40 nM, Ki calculated from FPA data)"
"CC(C)CN(Cc1cc(CN(Cc2ccc(F)cc2)S(=O)(=O)c2cc(Cl)cc(Cl)c2O)cc(Oc2ccc(F)cc2)c1)C(=O)c1ccc[n+]([O-])c1 [Example 20, 3-((3-((3,5-N-chloro-N-(4-fluorobenzyl)-2-hydroxyphenylsulfonamido)methyl)-5-(4-fluorophenoxy)benzyl)(isobutyl)carbamoyl)pyridine 1-oxide]",≤ 10 µM,–
"O=S(=O)(F)c1ccc(S(=O)(=O)NCc2cccc(CN(Cc3ccc(-c4ccccc4)cc3)S(=O)(=O)c3cc(Cl)cc(Cl)c3O)c2)c(S(=O)(=O)C(F)(F)F)c1 [Example 68, 4-(N-(3-((N-(biphenyl-4-ylmethyl)-3,5-dichloro-2-hydroxyphenylsulfonamido)methyl)benzyl)sulfamoyl)-3-(trifluoromethylsulfonyl)benzene-1-sulfonyl fluoride]",–,≤ 10 µM
